Tests used:
metmyoglobin (metMb) = test: Reductive nitrosylation of metmyoglobin (HNO trapping); set-up: species or system horse; conditions: 100 μM compound, 50 μM metMb, deaerated; for yield of MbNO from metMb: out of a possible 50 μM, PBS pH 7.4, 37° C.; for effect of GSH on reductive nitrosylation of metMb / formation of MbNO: 250 μM GSH
[1] = NO quantified by chemiluminescence on hydrolysis; format: physicochemical; conditions: neutral pH
[2] = Chemiluminescence detection of HNO in 1 mM ferricyanide solution; format: physicochemical
[3] = NO release measured with NO specific electrode; format: physicochemical; conditions: 2% serum

Compound	yield of MbNO from metMb (metmyoglobin (metMb))	effect of GSH on reductive nitrosylation of metMb / formation of MbNO (metmyoglobin (metMb))	species produced on spontaneous hydrolysis [1]	NO and HNO release [2]	[NO]pA ([3]; +Ferricyanide (1 mM)) [pA]	[NO]pA ([3]; without ferricyanide) [pA]
CC(C)N[N+]([O-])=N[O-].[Na+] [Compound 1, O^2-Sodium 1-(N-Isopropylamino)diazen-1-ium-1,2-diolate, reference compound]	approximately 25 μM	enhanced	produced both NO and HNO	–	–	–
CC(=O)OCO/N=[N+](\[O-])NC(C)C [Compound 2, O^2-(acetoxymethyl)1-(isopropylamino)diazen-1-ium-1,2-diolate]	~47 µM	inhibited	–	–	–	–
CCN(CC)[N+]([O-])=NOCOC(=O)c1ccccc1OC(C)=O [DEA/NO-aspirin, O2-(Acetylsalicyloyloxymethyl)-1-(N,N-Diethylamino)-diazen-1-ium-1,2-diolate]	–	–	–	shows NO release	5000	4600
CC(=O)Oc1ccccc1C(=O)OCON=[N+]([O-])NC(C)C [IPA/NO-aspirin, O2-(Acetylsalicyloyloxymethyl)-1-(N-isopropylamino)-diazen-1-ium-1,2-diolate]	–	–	–	showed both NO and HNO release	2100	1000
